For part of these data: No signal at the amounts used counts as a negative. For part of these data: Construct, isoform or probe ends are uncertain for at least one entry.
How the values were obtained:
Hemoglobin (Hb) [1] = assay: SELEX; conditions: purified native protein; single-stranded DNA
Hemoglobin A1c (HbA1c) = assay: SELEX; conditions: obtained from 7 positive/negative rounds and competitive analysis; PBS 0.01 M pH 7.4 wash; purified native protein; single-stranded DNA
Hemoglobin (Hb) [2] = assay: pull-down; conditions: weaker band than HbA1c beads, stated not to bind Hb; chemiluminescence significantly reduced with anti-Hb detection antibody; purified native protein; label: 5' biotin (blood detection assay); single-stranded DNA

ACAGCACCACAGACCAACAGCTACCATCTAACACTCGCGTCGTCTCCCTCACCTGGTGTTTGTCTTCCTGCC [Hb-specific aptamer SEQ ID NO: 8]
selection result (Hemoglobin (Hb) [1]): selected

ACAGCACCACAGACCACGCCCCCCCCCGTCCGCCCCTCCTAAGGCCGCGACGATGTGTTTGTCTTCCTGCCA [HbA1c-specific aptamer SEQ ID NO: 4]
selection result (Hemoglobin A1c (HbA1c)): selected

TGGCAGGAAGACAAACACATCGTCGCGGCCTTAGGAGGGGCGGACGGGGGGGGGCGTGGTCTGTGGTGCTGT [HbA1c-specific aptamer SEQ ID NO: 3]
binding result (Hemoglobin (Hb) [2]): no binding

— patent US20150111306, “HEMOGLOBIN A1c-SPECIFIC APTAMER, HEMOGLOBIN-SPECIFIC APTAMER, AND APPLICATIONS THEREOF” (National Tsing Hua University, published 2015)
